In publication PMC3403905 one finds binding data, which are given here for two molecules.

Sequences of proteins named here, by UniProt entry; tags and fusion partners are left off.
UniProt P51974: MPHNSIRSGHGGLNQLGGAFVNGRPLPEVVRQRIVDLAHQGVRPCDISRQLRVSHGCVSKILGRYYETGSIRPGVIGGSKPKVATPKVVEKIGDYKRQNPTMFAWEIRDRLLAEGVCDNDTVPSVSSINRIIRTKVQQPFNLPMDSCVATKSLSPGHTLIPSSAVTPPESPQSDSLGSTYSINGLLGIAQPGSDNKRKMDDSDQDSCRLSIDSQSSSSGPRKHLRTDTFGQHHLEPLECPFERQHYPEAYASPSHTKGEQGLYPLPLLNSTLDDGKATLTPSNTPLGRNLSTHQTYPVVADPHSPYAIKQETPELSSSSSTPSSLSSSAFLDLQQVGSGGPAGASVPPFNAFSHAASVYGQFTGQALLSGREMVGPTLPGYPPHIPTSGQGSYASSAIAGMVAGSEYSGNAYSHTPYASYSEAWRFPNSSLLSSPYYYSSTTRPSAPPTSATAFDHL
UniProt Q01714: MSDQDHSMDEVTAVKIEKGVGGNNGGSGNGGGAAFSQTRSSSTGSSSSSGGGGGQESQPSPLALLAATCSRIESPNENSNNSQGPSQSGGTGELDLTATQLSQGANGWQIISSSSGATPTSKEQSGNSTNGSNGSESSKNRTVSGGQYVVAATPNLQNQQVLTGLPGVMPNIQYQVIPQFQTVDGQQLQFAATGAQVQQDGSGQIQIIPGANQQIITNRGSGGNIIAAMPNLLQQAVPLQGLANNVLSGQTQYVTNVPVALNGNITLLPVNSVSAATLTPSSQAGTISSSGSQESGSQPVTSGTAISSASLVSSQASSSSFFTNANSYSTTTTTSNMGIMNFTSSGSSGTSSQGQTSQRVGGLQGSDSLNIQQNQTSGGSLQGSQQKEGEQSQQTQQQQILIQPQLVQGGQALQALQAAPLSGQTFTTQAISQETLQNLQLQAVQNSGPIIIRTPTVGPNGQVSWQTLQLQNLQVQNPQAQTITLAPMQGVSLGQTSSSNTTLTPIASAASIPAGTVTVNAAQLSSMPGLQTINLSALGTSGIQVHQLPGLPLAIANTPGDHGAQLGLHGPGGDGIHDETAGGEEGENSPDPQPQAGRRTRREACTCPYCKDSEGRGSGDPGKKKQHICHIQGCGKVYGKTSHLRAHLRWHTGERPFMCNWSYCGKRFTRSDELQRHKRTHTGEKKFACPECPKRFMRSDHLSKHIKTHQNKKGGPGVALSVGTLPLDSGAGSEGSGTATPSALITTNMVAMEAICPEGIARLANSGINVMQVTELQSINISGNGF

No constants are given. Whether binding was seen depends on the method and setting. Binding seen in cells or lysates may run through a third protein. Some entries that bind do so weakly or less than the wild type.

For the experiment, the target named is Pax8 (rat (endogenous in PCCl3)) (UniProt P51974). Kind of experiment: co-IP; nuclear extracts (200 ug) of control or hCTCF-transfected PCCl3 cells; polyclonal antibodies (anti-Pax8, anti-Sp1 or anti-CTCF) on Dynabeads; IP buffer 20 mM HEPES pH 8, 10 mM KCl, 0.15 mM EGTA, 0.15 mM EDTA, 150 mM NaCl, 0.1% NP-40; immunoblot for Sp1, CTCF or Pax8; nonspecific IgG as control.

Consider Sp1 (from UniProt Q01714 1-786), for which the binding entry was “binds”.

B1: full-length human CTCF (protein, UniProt P49711 1-727)
chain: MEGDAVEAIVEESETFIKGKERKTYQRRREGGQEEDACHLPQNQTDGGEVVQDVNSSVQMVMMEQLDPTLLQMKTEVMEGTVAPEAEAAVDDTQIITLQVVNMEEQPINIGELQLVQVPVPVTVPVATTSVEELQGAYENEVSKEGLAESEPMICHTLPLPEGFQVVKVGANGEVETLEQGELPPQEDPSWQKDPDYQPPAKKTKKTKKSKLRYTEEGKDVDVSVYDFEEEQQEGLLSEVNAEKVVGNMKPPKPTKIKKKGVKKTFQCELCSYTCPRRSNLDRHMKSHTDERPHKCHLCGRAFRTVTLLRNHLNTHTGTRPHKCPDCDMAFVTSGELVRHRRYKHTHEKPFKCSMCDYASVEVSKLKRHIRSHTGERPFQCSLCSYASRDTYKLKRHMRTHSGEKPYECYICHARFTQSGTMKMHILQKHTENVAKFHCPHCDTVIARKSDLGVHLRKQHSYIEQGKKCRYCDAVFHERYALIQHQKSHKNEKRFKCDQCDYACRQERHMIMHKRTHTGEKPYACSHCDKTFRQKQLLDMHFKRYHDPNFVPAAFVCSKCGKTFTRRNTMARHADNCAGPDGVEGENGGETKKSKRGRKRKMRSKKEDSSDSENAEPDLDDNEDEEEPAVEIEPEPEPQPVTPAPPPAKKRRGRPPGRTNQPKQNQPTAIIQVEDQNTGAIENIIVEVKKEPDAEPAEGEEEEAQPAATDAPNGDLTPEMILSMMDR
As to B1, the binding result is given as “binds”.
